# pKd: −log10 of the molar value. For part of these data: At least one peptide structure holds a part that was inferred or is arguable (an end, a ring closure or a residue). For part of these data: At least one structure is not confirmed: it was looked up by name or label, or the drawing left a doubt. Where a SMILES comes first, the peptide text is derived from it. [ ]: non-standard residue; d: D form. The star is where a group is joined. X1 = O=C(O)c1cc(NC(=S)*)ccc1-c1c2ccc(=O)cc-2oc2cc(O)ccc12; Ahx = NCCCCCC(=O)O
# Tests used:
# GBM-6 glioma stem cells = test: CellTiter Glo luminescent cell viability assay, GBM-6; assay type: cell-based, human; conditions: unlabeled peptide, concentration of 50, 48 hrs
# HEK-Bcan cells = test: Flow cytometry blocking study with 50× molar excess of unlabeled peptide; assay type: cell-based, human; conditions: fluorescein-conjugated peptide 1 μM
# Description: Cells were washed once with PBS and then, treated with 1 mL of 2.5 mM EDTA to dissociate the cells. The EDTA was removed by centrifugation, and PBS supplemented with 10% FBS was added to create a single-cell suspension. All peptide stocks were dissolved in DMSO, and stored at −20° C. in the dark. Cells were incubated with each peptide (at the desired final concentration, between 1-10 μM) for 3 hrs at 37° C. in the dark under constant rotation. After incubation, cells were washed 3× with PBS with 10% FBS (by centrifugation at 7000 rpm for 3 mins each). Then, cells were resuspended in 3.7% formaldehyde for fixation, and finally washed once with PBS. Cells were evaluated for peptide uptake (mean fluorescence intensity) by flow cytometry (10,000-20,000 events).
# For blocking studies, cells were dissociated as described above and resuspended in cold PBS with 10% FBS. Cells were then incubated with a 50× molar excess of unlabeled peptide for 10 mins on ice, before adding the corresponding FITC-labeled peptide at a final concentration of 1 μM and incubated for 1.5 hrs on ice. Cells were then washed with cold PBS with 10% FBS, fixed and analyzed by flow cytometry.
# GBM-6 neurospheres = test: Cell invasion assay of GBM-6 neurospheres in collagen; assay type: cell-based, human; conditions: 50 μM
# BT188 glioma stem cells = test: Peptide uptake in BT188 (BΔg-high) versus BT145 (BΔg-low) glioma stem cells, fluorescence imaging; assay type: cell-based, human; conditions: fluorescein-labeled peptides, 5 μM
# Source text: FIGS. 3A-I. Peptide characterization for BΔg specificity in glioma stem cells. (a) Table summary listing the properties of 7 peptides (composed of 8 D-amino acid residues, SEQ ID NOs:3-9, in order of appearance) that were isolated from the OBOC library screen. MW=molecular weight; KD=Kyte-Doolittle scale for amino acid hydropathy (positive scores indicate […]) (Kyte and Doolittle, J. Mol. Biol. 157, 105-132 (1982)). (b) Chemical structure showing the linkage between the peptide and FITC. (c) Western blot analysis showing the level of BΔg and Bcan in human embryo kidney (HEK) cells, and Bcan-overexpressing HEK cells (HEK-Bcan). […] Each group was normalized to a no-blocking (vehicle) control. Statistics were performed using multiple t-tests, and significance was measured in comparison to each vehicle control (p<0.0001). (e) Uptake of fluorescein-labeled BTP-2, 7, 8, 9, and 10 (at 5 μM conc.) in BT188 (BΔg-high) or BT145 (BΔg-low) glioma stem cells (GSCs). […] (h) Graph showing the cell uptake ranking of the top 3 peptide candidates, BTP-7, 8 and 9 in GBM-6 cells as determined by flow cytometry analysis with s.d. error bars (5 μM conc.; nevents=20,000 cells; nexperiment=5). […] Statistics were performed using the one-way ANOVA and Tukey's Multiple Comparison test (significance were measured in comparison to the Scr-8 control). […]
# [1] = test system: BΔg-derived peptide (a.a. 535-548 of BΔg); test: Circular dichroism of peptide mixed with BΔg-derived peptide; assay type: binding, human; conditions: CD spectrometry, control peptide
# Description: (§1) The BΔg peptide (or control BΔg(Scramble) peptide), BTP-7-FITC peptide, or a mixture of both (dissolved in Milli-Q H2O to a final concentration of 50 μM for each peptide) was loaded into a quartz cuvette (1 mm pathlength; Hellma Analytics Catalog #110-1-40). The cuvette was inserted into the Jasco J-815 circular dichroism spectropolarimeter, and the spectral scan measurement was conducted using the Spectrum Manager 2 software. The cuvette was rinsed with Milli-Q H2O in between each run. A blank (water) was run to establish the baseline for all samples. Scans were measured from 190 nm to 260 nm in a continuous mode (50-100 nm/min) at 20° C. To measure the BTP-7 structural change in the presence of either the BΔg (or control scramble) peptide, spectrum of the BΔg (or scramble) peptide alone was subtracted from the spectrum of the mixture, and then overlaid with the spectrum of BTP-7 alone for comparison. To investigate the structural changes in BTP-7 in a dose-dependent manner, 50 μM of BTP-7 peptide was loaded together with varying concentrations of either the BΔg (or control scramble) peptide. Similarly, the spectrum of each BΔg (or control scramble) peptide at the concentration was subtracted from the spectrum of the corresponding mixture, and then overlaid with the spectrum of BTP-7 alone for comparison.
# [2] = molecular target: T1, BΔg-derived peptide (a.a. 535-548 of BΔg) (Homo sapiens, UniProt Q96GW7); test: as above; assay type: binding; conditions: CD spectrometry, 50 μM each peptide
# T1 construct: purchased GenScript USA Inc; host or cells: chemical synthesis
# Description: as §1
# [3] = molecular target: T2, recombinant BΔg protein (deglycosylated brevican) (Homo sapiens, UniProt Q96GW7); test: Octet steady state binding affinity to recombinant BΔg; conditions: steady state analysis, Octet RED, peptide up to 10 μM; read-out: KD (dissociation constant) to BΔg protein
# T2 construct: purchased R&D Systems 4009-BC-050
# T2 sequence (Q96GW7 23-911): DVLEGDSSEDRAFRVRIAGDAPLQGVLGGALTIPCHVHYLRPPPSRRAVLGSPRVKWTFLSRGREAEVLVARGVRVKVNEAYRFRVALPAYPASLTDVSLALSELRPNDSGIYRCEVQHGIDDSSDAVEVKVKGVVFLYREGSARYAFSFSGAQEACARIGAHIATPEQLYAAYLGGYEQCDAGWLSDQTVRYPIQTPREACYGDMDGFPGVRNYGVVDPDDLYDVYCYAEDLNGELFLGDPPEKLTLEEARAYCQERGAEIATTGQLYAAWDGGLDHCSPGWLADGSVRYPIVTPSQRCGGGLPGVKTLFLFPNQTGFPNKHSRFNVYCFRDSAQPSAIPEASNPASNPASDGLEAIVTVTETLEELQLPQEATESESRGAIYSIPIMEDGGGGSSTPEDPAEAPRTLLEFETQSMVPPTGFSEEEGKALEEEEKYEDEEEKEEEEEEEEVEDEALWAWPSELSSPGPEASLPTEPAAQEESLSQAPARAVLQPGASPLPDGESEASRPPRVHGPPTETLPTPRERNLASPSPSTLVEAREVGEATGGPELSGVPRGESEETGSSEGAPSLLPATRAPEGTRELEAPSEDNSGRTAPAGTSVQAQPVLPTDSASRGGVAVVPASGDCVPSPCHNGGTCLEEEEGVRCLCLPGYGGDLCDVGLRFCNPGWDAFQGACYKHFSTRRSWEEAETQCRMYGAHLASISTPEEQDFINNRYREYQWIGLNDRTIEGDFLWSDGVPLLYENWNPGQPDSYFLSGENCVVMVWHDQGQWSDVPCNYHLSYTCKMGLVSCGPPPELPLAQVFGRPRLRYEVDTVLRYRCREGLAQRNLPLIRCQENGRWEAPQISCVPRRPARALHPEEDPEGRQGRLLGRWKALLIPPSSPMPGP
# Description: A ForteBio OctetRed384 instrument was used to study the binding kinetics of each peptide to recombinant human brevican (re-suspended in PBS and 0.1 mM EDTA, pH 6.8). The brevican protein was deglycosylated prior to experimental use in water+0.05% tween, PI, sialidase, 0-glycosidase, N-glycosidase in sodium acetate [200 mM], NaCl [250 mM], Tris-HCl [200 mM], pH 7.5.) in the presence of protease inhibitor overnight at 4° C. (this entire composition will be referred to as ‘de-glycosylation buffer’). […] The final volume for all the solutions was 80 μl/well. Assays were performed at 30° C. in solid black 384-well plates (Geiger Bio-One). Prior to beginning, Ni-NTA biosensors were soaked for 10 min in working buffer. Before loading the protein onto each biosensor, a baseline was established in working buffer for 60 s. Deglycosylated brevican (50 μg/ml BΔg; His-tagged) was loaded on the surface of each biosensors for 180 s. […] Binding affinity of each peptide was assessed through steady state analysis, where the response unit was plotted over peptide concentration. All data was plotted and curves were fitted using the non-linear ‘one-site specific binding’ fit, and the dissociation constant (KD) value was calculated using the GraphPad Prism software. […]
SMILES,effect on GBM-6 cell proliferation compared to untreated cells (GBM-6 glioma stem cells),uptake in HEK-Bcan cells in the presence of the blocking peptide (HEK-Bcan cells),effect on the average distance traveled by the migrated cells (GBM-6 neurospheres),effect on the number of cells migrated and disseminated from the neurosphere (GBM-6 neurospheres; tracked over 48 hrs),size of the difference in uptake between BT188 and BT145 GSCs (ranking) (BT188 glioma stem cells),uptake in BT188 GSCs compared with BT145 GSCs (BT188 glioma stem cells),peptide conformation in the presence of the scramble(BΔg) peptide [1],peptide conformation in the presence of the BΔg-derived peptide [2],pKd [3]
"CC(C)[C@@H](NC(=O)[C@@H](Cc1c[nH]cn1)NC(=O)CNC(=O)[C@@H](Cc1c[nH]c2ccccc12)NC(=O)[C@@H](CCCCN)NC(=O)[C@H](N)[C@H](C)O)C(=O)N[C@H](CC(N)=O)C(=O)N[C@H](CCCCN)C(N)=O [BTP-7, TKWGHVNK]",did not affect cell proliferation,reduced uptake,did not affect,did not affect,largest and most significant difference,greater uptake,minimal (or negligible),altered,–
CC(C)[C@@H](NC(=O)[C@@H](Cc1c[nH]cn1)NC(=O)CNC(=O)[C@@H](Cc1c[nH]c2ccccc12)NC(=O)[C@@H](CCCCN)NC(=O)[C@H](N)[C@H](C)O)C(=O)N[C@H](CC(N)=O)C(=O)N[C@H](CCCCN)C(=O)NCCCCCC(=O)N[C@@H](CCCCNC(=S)Nc1ccc(-c2c3ccc(=O)cc-3oc3cc(O)ccc23)c(C(=O)O)c1)C(N)=O [BTP-7 conjugated to a fluorescein dye] (H-[dT][dK][dW]G[dH][dV][dN][dK][Ahx]K(X1)-NH2),–,–,–,–,–,–,–,–,5.42
